Where “and” joins values, the source holds several entries; their conditions need not be identical. Equal entries are not always repeated. The whole screen tested about 580,000 compounds, of which about 6,100 (1.1%) were called active. Inconclusive results, whose numbers are uncertain, are shown with a selection of clear calls. The call rests on the fitted dose curve; in most records, active means well fitted inhibition curve with a large enough effect; inconclusive means small, poorly fitted or top-dose-only effect, or another doubt; inactive means no such curve, though single readings can be large or run the other way. Potencies of inconclusive entries are doubtful fits and often do not repeat.
What follows are compounds tested against Polyunsaturated fatty acid lipoxygenase ALOX12 (Homo sapiens) (UniProt P18054) (assay: Primary qHTS assay for inhibitors of human arachidonate 12S-lipoxygenase (ALOX12): Round 2). Details: purified 12hLO, xylenol orange hydroperoxide absorbance; activity change, negative = inhibition: at 108 µM (top of the series) unless noted.
Method in brief: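 Hydroperoxide product was detected by ferrous iron/xylenol orange as the 573 to 405 nm absorbance ratio. Arachidonic acid at 40 uM (final) was turned over for 30 min at room temperature by 150 nM human 12hLO, pH 7.0 Hepes buffer, after 15 min compound preincubation.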
On the % scale 0 is the no-effect control and ±100 the full control effect; potency means the concentration at half of the fitted maximal effect.

Amino acid sequences for entries named in this document (tags omitted).
UniProt P18054, whole entry, looked up: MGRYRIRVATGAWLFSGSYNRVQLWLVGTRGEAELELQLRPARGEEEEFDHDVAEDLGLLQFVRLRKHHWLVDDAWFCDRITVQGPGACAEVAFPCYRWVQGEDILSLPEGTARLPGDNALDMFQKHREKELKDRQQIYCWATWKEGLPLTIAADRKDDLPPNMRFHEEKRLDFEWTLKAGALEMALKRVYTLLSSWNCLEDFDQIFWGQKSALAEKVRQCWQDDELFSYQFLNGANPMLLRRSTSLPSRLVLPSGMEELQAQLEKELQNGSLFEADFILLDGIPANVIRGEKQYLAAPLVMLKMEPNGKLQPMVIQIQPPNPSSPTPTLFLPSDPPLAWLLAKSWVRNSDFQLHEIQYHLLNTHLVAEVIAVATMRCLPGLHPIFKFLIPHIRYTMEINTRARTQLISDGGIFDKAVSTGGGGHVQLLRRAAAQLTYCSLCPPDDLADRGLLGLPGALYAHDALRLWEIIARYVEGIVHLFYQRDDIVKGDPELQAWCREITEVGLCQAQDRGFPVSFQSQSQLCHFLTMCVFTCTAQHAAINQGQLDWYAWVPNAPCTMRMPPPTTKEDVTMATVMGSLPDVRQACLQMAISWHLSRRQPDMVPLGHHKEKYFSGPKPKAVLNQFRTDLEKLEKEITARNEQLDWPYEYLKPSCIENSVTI

| Compound | Potency | activity change, negative = inhibition |
| --- | --- | --- |
| O=C(NC(=S)Nc1ccccc1)c1cccs1 | inconclusive: 17.8 µM [inhibitor, full curve] | – |
| C=C(C)C1CC=C(CN2CCN(Cc3ccccc3)CC2)CC1 (stereo not given) | inconclusive: 39.8 µM [inhibitor, partial curve, poor fit] | – |
| Cc1cccc(N2CCN(S(=O)(=O)c3ccc4c(c3)NC(=O)CO4)CC2)c1C | inactive | – |
| C1CSC2(N1)C1CC3CC2CC(C1)C31NCCS1 (stereo not given) | inconclusive: 35.5 µM [inhibitor, partial curve, poor fit] | – |
| Cc1ccc(C)c(N2CCN(S(=O)(=O)c3ccc4oc(=O)c5ncn(C)c5c4c3)CC2)c1 | inconclusive: 141 µM [inhibitor, single point] | – |
| Cn1c(=O)c2cc(NC(=S)NC3CC3)ccc2n1C/C=C/c1ccccc1 | inconclusive: 44.7 µM [inhibitor, partial curve, poor fit] | – |
| COc1ccc(CN2C(=O)CO[C@H]3CN(Cc4ccccc4Cl)C[C@H]32)cc1 | inconclusive: 25.1 µM [inhibitor, full curve, poor fit] | – |
| Cc1ccccc1-c1nc2cc(NC(=O)c3ccc4c(c3)OCCO4)ccc2o1 | inconclusive: 28.2 µM [inhibitor, partial curve, poor fit] | – |
| CCN(CC1CCN(CCc2ccccc2C)CC1)C(=O)c1cc(C)nc(C)n1 | inactive | – |
| CCCNC(=O)c1ccc2c(c1)N(Cc1cccc(C)c1)C(=O)c1ccccc1S2 | inconclusive: 56.2 µM [inhibitor, partial curve, poor fit] | – |
| Cc1ccc(-c2c3c([nH]c(=S)c2C#N)CCCC3)o1 | inconclusive: 39.8 µM [inhibitor, partial curve] | – |
| CCCCNC(=O)C1(C)CCCCN1Cc1ccc(-c2ccccc2)cc1 (stereo not given) | inconclusive: 89.1 µM [inhibitor, partial curve, poor fit] | – |
| O=C(CSc1nnc(CNC(=O)c2cccs2)o1)c1ccccc1 | inconclusive: 35.5 µM [inhibitor, single point] | – |
| Cc1ccc(S(=O)(=O)N[C@H](C)c2onc(C)c2C(=O)O)cc1 | inconclusive: 31.6 µM [inhibitor, single point] | – |
| CC1CC(Nc2ccccc2)c2ccccc2N1C(=O)c1ccco1 (stereo not given) | inconclusive: 112 µM [inhibitor, single point] | – |
| Cc1ccc(C)c(/C(O)=C2\C(=O)C(=O)N(CCCN3CCOCC3)C2c2cccnc2)c1 (stereo not given) | inconclusive: 35.5 µM [inhibitor, partial curve, poor fit] | – |
| O=C(CSC1=NCCS1)N1CCN(c2ccc(Cl)cc2)CC1 | inactive | – |
| CCN(C(=O)COc1ccccc1)C1CCCCC1 | inactive | – |
| Cc1ccc(CN2C(=O)C[C@@H](NC(=O)OCC3c4ccccc4-c4ccccc43)C/C=C\C2c2ccc(C)cc2)cc1 (stereo not given in full) | inconclusive: 112 µM [inhibitor, single point] | – |
| COc1cccc(CC2(CO)CCCN(Cc3ccccc3Cl)C2)c1 (stereo not given) | inconclusive: 44.7 µM [inhibitor, partial curve, poor fit] | – |
| CSCCC(NC=C1C(=O)OC(C)(C)OC1=O)C(=O)O (stereo not given) | inactive | – |
| O=C(CSCC(=O)Nc1ccccc1)N/N=C/c1c(O)ccc2ccccc12 | inconclusive: 10 µM [inhibitor, full curve, poor fit] | – |

| Compound | Potency | activity change, negative = inhibition |
| --- | --- | --- |
| COc1cc(NC(=O)c2cc3ccccc3o2)ccc1NC(=O)c1ccco1 | inactive | – |
| Nc1cccc(C(=O)Nc2cccc3ncccc23)c1 | inactive | – |
| Cc1ccc(-c2noc(CCC(=O)Nc3cccc(S(=O)(=O)NC4=NCCC4)c3)n2)cc1 | inconclusive: 1.58 µM [inhibitor, full curve, poor fit] | – |
| O=c1[nH]c(=O)n(Cc2ccccc2)c2c1C(C(F)(F)F)(C(F)(F)F)N=C(c1ccco1)N2 | inconclusive: 22.4 µM [inhibitor, partial curve, poor fit] | – |
| Cc1nc2c(=O)n(-c3ccc(F)cc3F)nc(C)c2s1 | inconclusive: 126 µM [inhibitor, single point] | – |
| O=C1NC(=O)C(=Cc2ccc3nccnc3c2)S1 | inconclusive: 21.1 µM [inhibitor, single point] | – |
| CC(C)(O)c1[nH]c2cc(F)ccc2c1C(C)(C)O | inconclusive: 50.1 µM [inhibitor, partial curve, poor fit] | – |
| Oc1c(I)cc(I)c2cccnc12 | active: 4.55 µM and inconclusive: 5.62 µM [inhibitor, partial curve, poor fit] and active: 31.6 µM | – |
| Cc1ccc2nc(-c3ccco3)c(Cc3cccc(F)c3)n2c1 | inconclusive: 44.7 µM [inhibitor, partial curve, poor fit] | – |
| Cc1ccc(C(=O)O)cc1I | inconclusive: 3.16 µM [inhibitor, full curve, poor fit] | – |
| Cc1ccc(SCCNC(=S)Nc2cccc(Cl)c2C)cc1 | active: 31.6 µM | – |
| CNC(=O)c1cn2c(n1)CN([S+](=O)([O-])c1cccc(C(F)(F)F)c1)CC2 | – | inactive: 6.6% [at 6.33 µM] |
| O=C(Nc1ccc2[nH]c(=S)sc2c1)c1ccccc1 | inconclusive: 44.7 µM [inhibitor, partial curve, poor fit] | – |
| O=C(O)C1CC(=O)N(CCc2ccc(F)cc2)C1 (stereo not given) | inconclusive: 28.2 µM [inhibitor, partial curve, poor fit] | – |
| O=C(Nc1nc(-c2c[nH]c3ccccc23)cs1)C1CCC1 | active: 50.1 µM | – |
| Cc1ncc(CSCC(=O)Nc2cc(C(F)(F)F)ccc2Cl)c(CO)c1O | inconclusive: 5.01 µM [inhibitor, full curve, poor fit] | – |
| CS(=O)(=O)CC(O)c1cc2n(n1)CCN(Cc1ccc(Cl)s1)C2 (stereo not given) | inactive | – |
| Cc1ccc(C=O)n1-c1ccc(Cl)cc1 | inconclusive: 12.6 µM [inhibitor, full curve, poor fit] | – |
| O=C(CC1N=C2c3ccccc3N=C(SCC(=O)Nc3cccc(C(F)(F)F)c3)N2C1=O)NCc1cccs1 (stereo not given) | inconclusive: 126 µM [inhibitor, single point] | – |
| Cc1cc(-c2ccccc2)n(-c2ccc(C(=O)N3CCN(c4ncccn4)CC3)cc2)n1 | inactive | – |
| CCCCCCCCNS(=O)(=O)CCNC1CCCCC1 | inconclusive: 35.5 µM [inhibitor, partial curve, poor fit] | – |
| CCOC(=O)CCn1nc(-c2ccc(C)cc2)c2ccccc2c1=O | inconclusive: 100 µM [inhibitor, single point] | – |

| Compound | Potency | activity change, negative = inhibition |
| --- | --- | --- |
| CCOc1ccc(/C=C/C2=CC(C)(C)NC(=S)N2)cc1 | active: 39.8 µM | – |
| Cc1ccc(-n2c(SCC(=O)NC(=O)NC(C)C)nnc2N2CCCCC2)cc1 | inconclusive: 158 µM [inhibitor, single point] | – |
| COC(=O)N(C)C[C@H]1OCc2cnnn2CCCC(=O)N([C@H](C)CO)C[C@H]1C | inconclusive: 39.8 µM [inhibitor, single point] | – |
| O=C(c1ccc(Cl)nc1)N1CCC(c2nn(-c3ccc(Cl)cc3)c(=O)[nH]2)CC1 | inconclusive: 28.2 µM [inhibitor, full curve] | – |
| CCN1CCN(c2ccc(NC(=O)c3cc(OC)cc(OC)c3)cc2Cl)CC1 | inconclusive: 89.1 µM [inhibitor, single point] | – |
| CCCNc1nc2ccccc2nc1C(=O)Nc1c(C)cccc1C | inconclusive: 25.1 µM [inhibitor, partial curve, poor fit] | – |
| CCOC(=O)N1CCC(N2CCCC(C(=O)c3cc(F)ccc3OC)C2)CC1 (stereo not given) | inconclusive: 39.8 µM [inhibitor, partial curve, poor fit] | – |
| Cc1nn(-c2ccc3nnc(C)n3n2)c2c1C(c1ccc(O)cc1)CC(=O)N2 (stereo not given) | inconclusive: 35.5 µM [inhibitor, single point] | – |
| C=CCN(Cc1cccs1)C(=O)/C=C/c1ccccc1 | inactive | – |
| O=C(CCC1CCCO1)NCC1CCCO1 (stereo not given) | inactive | – |
| CN(C)C(=O)c1[nH]cnc1C(=O)NCC(C)(C)C | inconclusive: 10 µM [inhibitor, partial curve, poor fit] | – |
| COc1ccc(N(C(=O)c2ccco2)C(C(=O)NC2CCCC2)c2ccncc2)cc1OC (stereo not given) | inactive | – |
| Cc1cccc2c(C(=O)O)cc(-c3ccco3)nc12 | active: 8.91 µM | – |
| CCOc1ccc(CN2CCN(C(=O)c3cccc(F)c3)CC2)cc1 | inconclusive: 0.251 µM [inhibitor, full curve, poor fit] | – |
| CC(C)c1ccc(-n2ccnc(NCc3ccccc3)c2=O)cc1 | inconclusive: 35.5 µM [inhibitor, partial curve, poor fit] | – |
| CCc1cc2cc(C)cc(C)c2[nH]c1=S | inconclusive: 3.55 µM [inhibitor, full curve, poor fit] | – |
| O=c1ccc2cc(S(=O)(=O)NC34CC5CC(CC(C5)C3)C4)ccc2o1 | inconclusive: 44.7 µM [inhibitor, partial curve, poor fit] | – |
| O=C(CC1Sc2ccccc2NC1=O)NNc1ccc(Cl)c(Cl)c1 (stereo not given) | inconclusive: 2 µM [inhibitor, partial curve, poor fit] | – |
| CC(C)CN(C(=O)c1cc(-c2ccco2)nc2ccccc12)c1c(N)n(CC(C)C)c(=O)[nH]c1=O | inconclusive: 22.4 µM [inhibitor, partial curve] | – |
| O=C(CSc1ccc(Cl)cc1)NCC1CCCO1 (stereo not given) | inconclusive: 0.501 µM [inhibitor, full curve, poor fit] | – |
| Cc1ccc(NC(=O)c2ccc(N/N=C/c3cccc(O)c3)c([N+](=O)[O-])c2)cc1 | inactive | – |

A section taken from the entries so far, as a working copy:

| Compound | Potency | activity change, negative = inhibition |
| --- | --- | --- |
| CCOc1ccc(CN2CCN(C(=O)c3cccc(F)c3)CC2)cc1 | inconclusive: 0.251 µM [inhibitor, full curve, poor fit] | – |
| CC(C)c1ccc(-n2ccnc(NCc3ccccc3)c2=O)cc1 | inconclusive: 35.5 µM [inhibitor, partial curve, poor fit] | – |
| CCc1cc2cc(C)cc(C)c2[nH]c1=S | inconclusive: 3.55 µM [inhibitor, full curve, poor fit] | – |
| O=c1ccc2cc(S(=O)(=O)NC34CC5CC(CC(C5)C3)C4)ccc2o1 | inconclusive: 44.7 µM [inhibitor, partial curve, poor fit] | – |
| O=C(CC1Sc2ccccc2NC1=O)NNc1ccc(Cl)c(Cl)c1 (stereo not given) | inconclusive: 2 µM [inhibitor, partial curve, poor fit] | – |
